Values of other authors as cited in patent US10155994B2, “Methods of detecting DDR2 mutations” (QUEST DIAGNOSTICS INVESTMENTS INCORPORATED, priority 2012, dated 2018).
At least one structure is not confirmed: it was looked up by name or label, or the drawing left a doubt.

Tested on: squamous cell carcinoma (SCC) of the lung with DDR2 mutation
Settings: a few lung SCC cases with DDR2 mutation; from Cancer Discov. 2011

Q: Which “clinical response to treatment” value does the source give for `Cc1nc(Nc2ncc(C(=O)Nc3c(C)cccc3Cl)s2)cc(N2CCN(CCO)CC2)n1` [dasatinib] here?
A: clinical response
